Measured values published in paper PMC10765799.

Assays:
[1] = target: HA-SAP130 3KA (K794A/K878A/K932A) (human); assay: co-IP; COS-1 cells co-transfected, lysed after 48 h in modified RIPA buffer (50 mM Tris-HCl pH 7.8, 150 mM NaCl, 5 mM EDTA, detergents); IP with anti-HA, Western blot with anti-FLAG or anti-Myc
HA-SAP130 WT (human) = assay: as above
[2] = target: LexA-SAP130 C-terminal region (amino acids 760-1048) WT (human); assay: two-hybrid; LexA-SAP130 C-terminal region (760-1048) baits against Gal4 AD preys in L40 yeast; growth without histidine, X-Gal plates, liquid beta-galactosidase assay

Row | Binder | binding [1] | binding (HA-SAP130 WT (human)) | binding [2]
1 | myc-tagged mSin3A (protein, UniProt Q60520 1-1274) MKRRLDDQESPVYAAQQRRIPGSTEAFSHQHRVLAPAPPVYEAVSETMQSATGIQYSVAPNYQVSAVPQSSGSHGPAIAAVHSSHHHPTAVQPHGGQVVQSHAHPAPPVAPVQGQQQFQRLKVEDALSYLDQVKLQFGSQPQVYNDFLDIMKEFKSQSIDTPGVISRVSQLFKGHPDLIMGFNTFLPPGYKIEVQTNDMVNVTTPGQVHQIPTHGIQPQPQPPPQHPSQPSSQSAPTPAQPAPQPTAAKVSKPSQLQAHTPASQQTPPLPPYASPRSPPVQPHTPVTISLGTAPSLQNNQPVEFNHAINYVNKIKNRFQGQPDIYKAFLEILHTYQKEQRNAKEAGGNYTPALTEQEVYAQVARLFKNQEDLLSEFGQFLPDANSSVLLSKTTAEKVDSVRNDHGGTVKKPQLNNKPQRPSQNGCQIRRHSGTGATPPVKKKPKLMSLKESSMADASKHGVGTESLFFDKVRKALRSAEAYENFLRCLVIFNQEVISRAELVQLVSPFLGKFPELFNWFKNFLGYKESVHLESFPKERATEGIAMEIDYASCKRLGSSYRALPKSYQQPKCTGRTPLCKEVLNDTWVSFPSWSEDSTFVSSKKTQYEEHIYRCEDERFELDVVLETNLATIRVLEAIQKKLSRLSAEEQAKFRLDNTLGGTSEVIHRKALQRIYADKAADIIDGLRKNPSIAVPIVLKRLKMKEEEWREAQRGFNKVWREQNEKYYLKSLDHQGINFKQNDTKVLRSKSLLNEIESIYDERQEQATEENAGVPVGPHLSLAYEDKQILEDAAALIIHHVKRQTGIQKEDKYKIKQIMHHFIPDLLFAQRGDLSDVEEEEEEEMDVDEATGAPKKHNGVGGSPPKSKLLFSNTAAQKLRGMDEVYNLFYVNNNWYIFMRLHQILCLRLLRICSQAERQIEEENREREWEREVLGIKRDKSDSPAIQLRLKEPMDVDVEDYYPAFLDMVRSLLDGNIDSSQYEDSLREMFTIHAYIAFTMDKLIQSIVRQLQHIVSDEVCVQVTDLYLAENNNGATGGQLNSQTSRSLLESAYQRKAEQLMSDENCFKLMFIQSQGQVQLTVELLDTEEENSDDPVEAERWSDYVERYMSSDTTSPELREHLAQKPVFLPRNLRRIRKCQRGREQQEKEGKEGNSKKTMENVESLDKLECRFKLNSYKMVYVIKSEDYMYRRTALLRAHQSHERVSKRLHQRFQAWVDKWTKEHVPREMAAETSKWLMGEGLEGLVPCTTTCDTETLHFVSINKYRVKYGTVFKAP | binds | binds | 
2 | Gal4 AD-mSin3A (full-length) (protein, UniProt Q60520 1-1274) MKRRLDDQESPVYAAQQRRIPGSTEAFSHQHRVLAPAPPVYEAVSETMQSATGIQYSVAPNYQVSAVPQSSGSHGPAIAAVHSSHHHPTAVQPHGGQVVQSHAHPAPPVAPVQGQQQFQRLKVEDALSYLDQVKLQFGSQPQVYNDFLDIMKEFKSQSIDTPGVISRVSQLFKGHPDLIMGFNTFLPPGYKIEVQTNDMVNVTTPGQVHQIPTHGIQPQPQPPPQHPSQPSSQSAPTPAQPAPQPTAAKVSKPSQLQAHTPASQQTPPLPPYASPRSPPVQPHTPVTISLGTAPSLQNNQPVEFNHAINYVNKIKNRFQGQPDIYKAFLEILHTYQKEQRNAKEAGGNYTPALTEQEVYAQVARLFKNQEDLLSEFGQFLPDANSSVLLSKTTAEKVDSVRNDHGGTVKKPQLNNKPQRPSQNGCQIRRHSGTGATPPVKKKPKLMSLKESSMADASKHGVGTESLFFDKVRKALRSAEAYENFLRCLVIFNQEVISRAELVQLVSPFLGKFPELFNWFKNFLGYKESVHLESFPKERATEGIAMEIDYASCKRLGSSYRALPKSYQQPKCTGRTPLCKEVLNDTWVSFPSWSEDSTFVSSKKTQYEEHIYRCEDERFELDVVLETNLATIRVLEAIQKKLSRLSAEEQAKFRLDNTLGGTSEVIHRKALQRIYADKAADIIDGLRKNPSIAVPIVLKRLKMKEEEWREAQRGFNKVWREQNEKYYLKSLDHQGINFKQNDTKVLRSKSLLNEIESIYDERQEQATEENAGVPVGPHLSLAYEDKQILEDAAALIIHHVKRQTGIQKEDKYKIKQIMHHFIPDLLFAQRGDLSDVEEEEEEEMDVDEATGAPKKHNGVGGSPPKSKLLFSNTAAQKLRGMDEVYNLFYVNNNWYIFMRLHQILCLRLLRICSQAERQIEEENREREWEREVLGIKRDKSDSPAIQLRLKEPMDVDVEDYYPAFLDMVRSLLDGNIDSSQYEDSLREMFTIHAYIAFTMDKLIQSIVRQLQHIVSDEVCVQVTDLYLAENNNGATGGQLNSQTSRSLLESAYQRKAEQLMSDENCFKLMFIQSQGQVQLTVELLDTEEENSDDPVEAERWSDYVERYMSSDTTSPELREHLAQKPVFLPRNLRRIRKCQRGREQQEKEGKEGNSKKTMENVESLDKLECRFKLNSYKMVYVIKSEDYMYRRTALLRAHQSHERVSKRLHQRFQAWVDKWTKEHVPREMAAETSKWLMGEGLEGLVPCTTTCDTETLHFVSINKYRVKYGTVFKAP |  |  | binds weakly

Results are given in words; binding and its absence hold for the method and conditions named. Binding can be weak; no strength is given. Tags and fused reporters may be left off the sequences shown. For part of these data: In cells and extracts the contact can be indirect.
